Assay results taken from PMC4505335, “Selective targeting of PPARγ by the natural product chelerythrine with a unique binding mode and improved antidiabetic potency” (Scientific Reports, 2015).
Results are given in words; binding and its absence hold for the method and conditions named. Some results given as binding are weak or reduced against the parent protein; the word gives no strength.

What was measured:
[1] = target: T1, Human PPARγ LBD (residues 206–477) (human, UniProt P37231-2 206-477); assay: AlphaScreen or HTRF; hexahistidine detection kit; about 20–40 nmol/l His6-PPARγ LBD and 20 nmol/l biotinylated peptide, 5 μg/ml donor and acceptor beads; 50 mmol/l MOPS, 50 mmol/l NaF, 0.05 mmol/l CHAPS, 0.1 mg/ml BSA, pH 7.4; with rosiglitazone (1 μmol/l, and dose curves); both purified
T1 construct: The tag is detected in the AlphaScreen (hexahistidine detection kit); also called NR1C3; source: E. coli BL21(DE3), purified (Ni HiTrap HP, SP-Sepharose); not shown: His6, N-terminal, kept
T1 sequence (looked up): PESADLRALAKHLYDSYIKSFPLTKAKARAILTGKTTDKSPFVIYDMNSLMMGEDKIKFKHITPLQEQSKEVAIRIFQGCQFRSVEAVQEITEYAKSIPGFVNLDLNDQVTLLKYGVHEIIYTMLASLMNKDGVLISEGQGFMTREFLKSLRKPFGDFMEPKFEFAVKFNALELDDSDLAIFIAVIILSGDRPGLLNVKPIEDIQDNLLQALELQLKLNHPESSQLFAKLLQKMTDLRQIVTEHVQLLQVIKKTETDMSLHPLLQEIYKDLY

[2] = target: T1, Human PPARγ LBD (residues 206–477); assay: AlphaScreen or HTRF; hexahistidine detection kit; about 20–40 nmol/l His6-PPARγ LBD and 20 nmol/l biotinylated peptide, 5 μg/ml donor and acceptor beads; 50 mmol/l MOPS, 50 mmol/l NaF, 0.05 mmol/l CHAPS, 0.1 mg/ml BSA, pH 7.4; with chelerythrine (5 μmol/l, and dose curves); both purified

| Binder | binding [1] | binding [2] |
| --- | --- | --- |
| PDAASKHKQLSELLRGGSG (N-terminal biotinylation) [SRC3 coactivator peptide, N-terminally biotinylated] | binds | binds weakly |
| SPSSHSSLTERHKILHRLLQEGSP (N-terminal biotinylation) [SRC1 coactivator peptide, N-terminally biotinylated] |  | binds weakly |
| QEPVSPKKKENALLRYLLDKDDTKD (N-terminal biotinylation) [SRC2 coactivator peptide, N-terminally biotinylated] |  | binds weakly |
